PubChem BioAssay AID1259424 | University of Nebraska Medical Center | 2018
This is a random part of about 14,000 reagents. 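Higher correlation or smaller distance means closer resemblance to KSR1 loss; control wells, including KSR1 knockdowns, recur on many plates.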 Not all columns of the deposit are shown. The record does not give: the time to read-out.

Assay: 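Find knockdowns that reproduce the expression shifts seen after KSR1 loss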 (primary screen)
Cells: human HCT116 colon cancer cells
Reagents: siRNA pool against human genes, 50 nM
Measured: 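Six signature mRNAs by branched-DNA multiplex assay, scaled to two housekeeping genes and non-targeting median, log2; matched to mean KSR1 knockdown profile by Pearson correlation and euclidean distance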
Direction: mean correlation with KSR1 profile: higher = expression change more like KSR1 knockdown; mean distance from KSR1 profile: higher = expression change less like KSR1 knockdown

DNAJC13 (GeneID 23317) | mean correlation with KSR1 profile: -0.453; mean distance from KSR1 profile: 3.01
ORM2 (GeneID 5005) | mean correlation with KSR1 profile: -0.281; mean distance from KSR1 profile: 2.93
RTCB (GeneID 51493) | mean correlation with KSR1 profile: -0.623; mean distance from KSR1 profile: 3
KCNQ2 (GeneID 3785) | mean correlation with KSR1 profile: 0.189; mean distance from KSR1 profile: 2.5
SLC30A9 (GeneID 10463) | mean correlation with KSR1 profile: 0.000238; mean distance from KSR1 profile: 4.56
USP49 (GeneID 25862) | mean correlation with KSR1 profile: -0.4; mean distance from KSR1 profile: 3.27
VPS4A (GeneID 27183) | mean correlation with KSR1 profile: 0.504; mean distance from KSR1 profile: 1.88
PCDHAC1 (GeneID 56135) | mean correlation with KSR1 profile: 0.27; mean distance from KSR1 profile: 1.73
E2F4 (GeneID 1874) | mean correlation with KSR1 profile: -0.386; mean distance from KSR1 profile: 1.78
FOXL1 (GeneID 2300) | mean correlation with KSR1 profile: 0.176; mean distance from KSR1 profile: 1.73
LATS2 (GeneID 26524) | mean correlation with KSR1 profile: 0.536; mean distance from KSR1 profile: 1.03
SERF2 (GeneID 10169) | mean correlation with KSR1 profile: -0.628; mean distance from KSR1 profile: 3.15
GDI2 (GeneID 2665) | mean correlation with KSR1 profile: -0.468; mean distance from KSR1 profile: 1.92
SNRNP40 (GeneID 9410) | mean correlation with KSR1 profile: -0.304; mean distance from KSR1 profile: 1.97
NUBP2 (GeneID 10101) | mean correlation with KSR1 profile: 0.587; mean distance from KSR1 profile: 1.38
FANCL (GeneID 55120) | mean correlation with KSR1 profile: -0.511; mean distance from KSR1 profile: 2.09
SOCS5 (GeneID 9655) | mean correlation with KSR1 profile: -0.524; mean distance from KSR1 profile: 3.16

4 entries from above in another layout.
Gene | mean correlation with KSR1 profile | mean distance from KSR1 profile
SLC30A9 (GeneID 10463) | 0.000238 | 4.56
USP49 (GeneID 25862) | -0.4 | 3.27
VPS4A (GeneID 27183) | 0.504 | 1.88
PCDHAC1 (GeneID 56135) | 0.27 | 1.73

The listing continues.
NOP53 (GeneID 29997) | mean correlation with KSR1 profile: -0.205; mean distance from KSR1 profile: 2.64
TTLL12 (GeneID 23170) | mean correlation with KSR1 profile: -0.373; mean distance from KSR1 profile: 1.95
OPCML (GeneID 4978) | mean correlation with KSR1 profile: 0.412; mean distance from KSR1 profile: 1.19
DLK1 (GeneID 8788) | mean correlation with KSR1 profile: 0.39; mean distance from KSR1 profile: 1.98
PLAT (GeneID 5327) | mean correlation with KSR1 profile: 0.47; mean distance from KSR1 profile: 1.04
SERPINE1 (GeneID 5054) | mean correlation with KSR1 profile: -0.702; mean distance from KSR1 profile: 1.84
CCDC9 (GeneID 26093) | mean correlation with KSR1 profile: -0.248; mean distance from KSR1 profile: 4.07
TSNAXIP1 (GeneID 55815) | mean correlation with KSR1 profile: -0.00111; mean distance from KSR1 profile: 1.01
ILKAP (GeneID 80895) | mean correlation with KSR1 profile: -0.353; mean distance from KSR1 profile: 2.05
LAMC3 (GeneID 10319) | mean correlation with KSR1 profile: 0.386; mean distance from KSR1 profile: 1.34
AOPEP (GeneID 84909) | mean correlation with KSR1 profile: 0.203; mean distance from KSR1 profile: 2.79
